Laboratory results published in US20050221196A1, “Redox shuttle for rechargeable lithium-ion cell” (priority 2004, published 2005).

Columns and labels:
[1] = Extended shuttle-protected overcharge cycling, LiFePO4/graphite cell, 100% overcharge each cycle
Experimental: Further testing was carried out to evaluate currents up to 1/3 of Imax in extended shuttle-protected overcharge tests. […] The shuttle plateau is near 3.9 V because the graphite electrode is near 0 V vs Li/Li^+ when the Li-ion coin cell is fully charged. The charging current was 0.55 mA, which corresponds to about a C/2-rate for the electrodes of this cell. The shuttle continues to perform well after 200 charge discharge cycles. […] In this case, the shuttle was able to protect against overcharge for about 190 cycles, followed by disappearance of the shuttle effect over the next few cycles. […] The loss of shuttle effect at high C rates may have been due to the Li4/3Ti5/3O4 negative electrode dropping below its plateau potential (1.55 V) before reaching the fully discharged state.

[2] = Shuttle molecules tested in LiFePO4/graphite and LiFePO4/Li4/3Ti5/3O4 coin cells, C/10, 100% overcharge; settings: tested until the shuttle ceased to function
Experimental: A variety of shuttle molecules (obtained from Aldrich Chemical Co. and used without further purification) were tested in LiFePO4/graphite and LiFePO4/Li4/3Ti5/3O4 coin cells. The LiFePO4 was obtained from Phostech Lithium as in Example 1 and the Li4/3Ti5/3O4 was obtained from NEI Corp. (Piscataway, N.J., USA). The graphite used was mesocarbon microbeads (MCMB) heat treated to near 2650° C. Electrodes were made from the active materials 10% by weight Super S carbon black (MMM Carbon, Belgium) and 10% by weight PVDF binder. LiFePO4 and Li4/3Ti5/3O4 electrodes were coated on aluminum foil and MCMB electrodes were coated on copper foil. […] The electrolyte was 0.7 M LiBOB in a 1:2:1:2 by volume mixture of PC:DMC:EC:DEC. The shuttle molecule was added in a concentration of 0.1M. Coin cells were charged using currents corresponding to a normal recharge in 10 hours (C/10) to 200% of their normal charge capacity (100% overcharge) or until a specified upper cut-off potential (normally 4.9V versus Li/Li^+) was reached, which ever occurred first and tested until the shuttle ceased to function. Four shuttles were employed, namely 1,3,5-tri-t-butyl-2-methoxybenzene (Example 9), 5-t-butyl-1,3-dinitro-2-methoxybenzene (Example 10), 2-t-butyl-4,6-dinitro-5-methylanisole (Example 11) and 4-t-butyl-2,6-diaminoanisole (Comparison Example 10). The coin cell test results are set out below in Table 2: […]

Compound | charge discharge cycles after which shuttle continues to perform well ([1]; 0.55 mA charging current, about C/2-rate) [cycles] | cycles of protection against overcharge ([1]; 1.1 mA charging current, about C-rate) | Cycles [2]
COc1cc(C(C)(C)C)c(OC)cc1C(C)(C)C [2,5-di-tert-butyl-1,4-dimethoxybenzene] | ≥ 200 | about 190 cycles | –
COc1c(N)cc(C(C)(C)C)cc1N [Comp. Ex. 5, 4-t-butyl-2,6-diaminoanisole, reference compound] | – | – | 0
COc1c(C(C)(C)C)cc(C(C)(C)C)cc1C(C)(C)C [Example 9, 1,3,5-tri-t-butyl-2-methoxybenzene] | – | – | 3
COc1c([N+](=O)[O-])cc(C(C)(C)C)cc1[N+](=O)[O-] [Example 10, 5-t-butyl-1,3-dinitro-2-methoxybenzene] | – | – | 2
COc1c(C(C)(C)C)cc([N+](=O)[O-])c(C)c1[N+](=O)[O-] [Example 11, 2-t-butyl-4,6-dinitro-5-methylanisole] | – | – | 2
